Data source: PubChem BioAssay AID1259308 (NCATS, 2017)
Test: 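Genes whose loss raises luciferase production in HEK293 cells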 (primary screen). Cell system: human HEK293 embryonic kidney cells stably expressing firefly luciferase (HEK-CMV-Luc2-Hygro). Reagent: single siRNA against human genes, 0.8 pmol siRNA per well. Time to read-out: 72 h. Detection: 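Luciferase light (ONE-Glo) measured on one replicate plate set and viability (CellTiter-Glo) on the other, scaled to a negative control siRNA, with robust z-scores and luciferase per cell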. Direction: total luciferase, z-score and total luciferase, % of control: higher = more reporter protein produced. Active means: 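An siRNA counts as active if its total luciferase robust z-score exceeds 3; genes with two or more such siRNAs out of three were retested with fresh siRNAs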. Meaning of the calls: active = raised luciferase; inactive = no rise.
The whole screen tested about 59,000 reagents; shown is an unselected part. In the full data, about 1,510 (2.6%) are marked active. 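Calls use total luciferase alone and ignore viability, so some active siRNAs may act by altering cell number.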 Entries without a mark were called inactive. The numbers tell different reagents against one gene apart. Not all columns of the deposit are shown. No sequences are given here.

GALNT6 (polypeptide N-acetylgalactosaminyltransferase 6) #1: total luciferase, z-score = 0.635; total luciferase, % of control = 94.5
GALNT6 (polypeptide N-acetylgalactosaminyltransferase 6) #2: total luciferase, z-score = -2.46; total luciferase, % of control = 33
GALNT6 (polypeptide N-acetylgalactosaminyltransferase 6) #3: total luciferase, z-score = 2.01; total luciferase, % of control = 122
CSE1L (chromosome segregation 1 like) #1: total luciferase, z-score = 2.12; total luciferase, % of control = 124
CSE1L (chromosome segregation 1 like) #2: total luciferase, z-score = 2.63; total luciferase, % of control = 134
CSE1L (chromosome segregation 1 like) #3: total luciferase, z-score = 2.11; total luciferase, % of control = 124
ZRANB2 (zinc finger RANBP2-type containing 2) #1: total luciferase, z-score = -0.39; total luciferase, % of control = 74.1
ZRANB2 (zinc finger RANBP2-type containing 2) #2: total luciferase, z-score = -0.635; total luciferase, % of control = 69.3
ZRANB2 (zinc finger RANBP2-type containing 2) #3: total luciferase, z-score = -0.803; total luciferase, % of control = 65.9
MAGEC1 (MAGE family member C1) #1: total luciferase, z-score = -1.98; total luciferase, % of control = 42.5
MAGEC1 (MAGE family member C1) #2: total luciferase, z-score = -0.55; total luciferase, % of control = 70.9
MAGEC1 (MAGE family member C1) #3: total luciferase, z-score = 0.284; total luciferase, % of control = 87.5
NPBWR2 (neuropeptides B and W receptor 2) #1: total luciferase, z-score = -0.167; total luciferase, % of control = 78.6
NPBWR2 (neuropeptides B and W receptor 2) #2: total luciferase, z-score = 3.28 (active); total luciferase, % of control = 147
NPBWR2 (neuropeptides B and W receptor 2) #3: total luciferase, z-score = 0.677; total luciferase, % of control = 95.4
ZNF511 (zinc finger protein 511) #1: total luciferase, z-score = -0.856; total luciferase, % of control = 64.9
ZNF511 (zinc finger protein 511) #2: total luciferase, z-score = -0.908; total luciferase, % of control = 63.8
ZNF511 (zinc finger protein 511) #3: total luciferase, z-score = -2.54; total luciferase, % of control = 31.5
TMEM50A (transmembrane protein 50A) #1: total luciferase, z-score = -2.84; total luciferase, % of control = 25.3
TMEM50A (transmembrane protein 50A) #2: total luciferase, z-score = 0.381; total luciferase, % of control = 89.5
TMEM50A (transmembrane protein 50A) #3: total luciferase, z-score = -0.00728; total luciferase, % of control = 81.7
SNRPG (small nuclear ribonucleoprotein polypeptide G) #1: total luciferase, z-score = 1.78; total luciferase, % of control = 117
SNRPG (small nuclear ribonucleoprotein polypeptide G) #2: total luciferase, z-score = 3.23 (active); total luciferase, % of control = 146
SNRPG (small nuclear ribonucleoprotein polypeptide G) #3: total luciferase, z-score = 1.79; total luciferase, % of control = 117
TYROBP (transmembrane immune signaling adaptor TYROBP) #1: total luciferase, z-score = 0.25; total luciferase, % of control = 86.9
TYROBP (transmembrane immune signaling adaptor TYROBP) #2: total luciferase, z-score = -0.919; total luciferase, % of control = 63.6
TYROBP (transmembrane immune signaling adaptor TYROBP) #3: total luciferase, z-score = 0.0667; total luciferase, % of control = 83.2
PRPF38A (pre-mRNA processing factor 38A) #1: total luciferase, z-score = 0.648; total luciferase, % of control = 94.8
PRPF38A (pre-mRNA processing factor 38A) #2: total luciferase, z-score = 2.94; total luciferase, % of control = 140
PRPF38A (pre-mRNA processing factor 38A) #3: total luciferase, z-score = -0.091; total luciferase, % of control = 80.1
CALML4 (calmodulin like 4) #1: total luciferase, z-score = -2.58; total luciferase, % of control = 30.6
CALML4 (calmodulin like 4) #2: total luciferase, z-score = -0.565; total luciferase, % of control = 70.6
CALML4 (calmodulin like 4) #3: total luciferase, z-score = 4.63 (active); total luciferase, % of control = 174
RPL35P10 (ribosomal protein L35 pseudogene 10) #1: total luciferase, z-score = -0.35; total luciferase, % of control = 74.9
RPL35P10 (ribosomal protein L35 pseudogene 10) #2: total luciferase, z-score = 0.0517; total luciferase, % of control = 82.9
RPL35P10 (ribosomal protein L35 pseudogene 10) #3: total luciferase, z-score = -0.412; total luciferase, % of control = 73.7
CDH18 (cadherin 18) #1: total luciferase, z-score = 0.489; total luciferase, % of control = 91.6
CDH18 (cadherin 18) #2: total luciferase, z-score = -2.1; total luciferase, % of control = 40.1
CDH18 (cadherin 18) #3: total luciferase, z-score = -0.141; total luciferase, % of control = 79.1
SELENOV (selenoprotein V) #1: total luciferase, z-score = -1.01; total luciferase, % of control = 61.8
SELENOV (selenoprotein V) #2: total luciferase, z-score = -0.281; total luciferase, % of control = 76.3
SELENOV (selenoprotein V) #3: total luciferase, z-score = 0.619; total luciferase, % of control = 94.2

Records listed so far whose target name starts with T or t (6):
TMEM50A (transmembrane protein 50A) #1: total luciferase, z-score = -2.84; total luciferase, % of control = 25.3
TMEM50A (transmembrane protein 50A) #2: total luciferase, z-score = 0.381; total luciferase, % of control = 89.5
TMEM50A (transmembrane protein 50A) #3: total luciferase, z-score = -0.00728; total luciferase, % of control = 81.7
TYROBP (transmembrane immune signaling adaptor TYROBP) #1: total luciferase, z-score = 0.25; total luciferase, % of control = 86.9
TYROBP (transmembrane immune signaling adaptor TYROBP) #2: total luciferase, z-score = -0.919; total luciferase, % of control = 63.6
TYROBP (transmembrane immune signaling adaptor TYROBP) #3: total luciferase, z-score = 0.0667; total luciferase, % of control = 83.2
